## Screening data, single-dose tests

Amino acid sequences for entries named in this document (tags omitted). Residues count along the entry.
UniProt A4I591, 1-473: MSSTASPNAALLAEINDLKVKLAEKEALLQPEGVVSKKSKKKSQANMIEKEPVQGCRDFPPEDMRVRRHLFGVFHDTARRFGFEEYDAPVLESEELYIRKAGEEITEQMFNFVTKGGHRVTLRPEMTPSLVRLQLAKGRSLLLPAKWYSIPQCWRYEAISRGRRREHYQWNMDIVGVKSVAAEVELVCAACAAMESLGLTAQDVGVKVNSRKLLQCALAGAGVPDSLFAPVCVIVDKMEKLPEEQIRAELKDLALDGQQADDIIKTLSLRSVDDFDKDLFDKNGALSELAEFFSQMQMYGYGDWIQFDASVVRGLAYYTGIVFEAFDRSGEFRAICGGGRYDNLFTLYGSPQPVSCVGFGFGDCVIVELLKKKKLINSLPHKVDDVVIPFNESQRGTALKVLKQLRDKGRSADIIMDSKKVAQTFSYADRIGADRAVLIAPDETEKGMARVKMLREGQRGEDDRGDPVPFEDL

Results are given as percent effect. The controls that fix the scale are not given in the record; negative values are as filed. Compounds were drawn at random from those tested, without regard to their results.

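Histidine-tRNA ligase, Leishmania infantum (UniProt A4I591). Enzyme assay of histidyl-tRNA synthetase; the read-out is not stated. Concentration: 30 µM. Direction is inferred from retests: higher values go with stronger inhibition. The assay is labelled LdHisRS but filed under L. infantum. About 69,000 compounds were tested under these conditions; 0.6% (about 410) showed 50% or more at least once.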

{"compound": "c1nc(CSc2nnc(C3CC3)s2)cs1", "effect": 12.28}
{"compound": "N#Cc1cccc(S(=O)(=O)NC(=O)COC2CCCC2)c1", "effect": 19.18}
{"compound": "COC(=O)CCC(=O)N1CCc2[nH]nc(-c3ccc4c(c3)OCO4)c2C1", "effect": 9.434}
{"compound": "CN(C)C(=O)CN1CCO[C@H]2CN(Cc3cccc(F)c3)C[C@H]21", "effect": 17.12}
{"compound": "Cc1nn(C)c(C)c1C1COCCN1C(=O)CC(C)(C)C", "stereo": "stereo not shown", "effect": 7.752}
{"compound": "COC(=O)NCCCn1ccnc1-c1ccccc1", "effect": 21.74}
{"compound": "COCCN1CCOCC12CCN(c1cnccn1)CC2", "effect": 2.703}
{"compound": "CC(C)N(Cc1ccc(C(=O)O)o1)C(C)C", "effect": 1.961}
{"compound": "CCn1nc(C)c(CCn2ccnc2-c2cc3n(n2)CCNC3)c1C", "effect": 8.772}
{"compound": "COc1ccccc1C1CC(=O)Nc2c1c(=O)[nH]n2C1CCCC1", "stereo": "stereo not shown", "effect": 14.29}
{"compound": "Cc1ccc(C2(CN(C)Cc3snnc3C)CCNCC2)nc1", "effect": 16.81}
{"compound": "O=C(Nc1ccc2c(ccn2CCN2CCOCC2)c1)c1ccncc1", "effect": 25.66}
{"compound": "CCCN1CCCn2nc(CNC(=O)CCOC)cc2C1", "effect": 15.38}
{"compound": "CC(O)CN1CCc2[nH]nc(C(c3ccccc3)c3ccccc3)c2C1", "stereo": "stereo not shown", "effect": 21.13}
{"compound": "Nc1nccnc1CC1CCCN(Cc2c[nH]c3ccccc23)C1", "stereo": "stereo not shown", "effect": 8.451}
{"compound": "CC(C)c1nnsc1CNC(=O)C1CCN(C(C)C)CC1", "effect": 40.96}
{"compound": "COCc1nc(Cn2c(C)cc(C(F)(F)F)cc2=O)no1", "effect": 13.99}
{"compound": "CCn1cc(CNc2ccc3nccnc3c2)cn1", "effect": 90.91}
{"compound": "OCc1ccc(OCC(F)(F)F)cc1", "effect": 5.714}
{"compound": "Cc1oc(C)c(C(=O)NS(=O)(=O)c2ccc3c(c2)OCCO3)c1Br", "effect": 10}
{"compound": "Cc1cc(-c2cnc(C(C)C)nc2CN(C)C(=O)c2ccccn2)on1", "effect": 2.069}
{"compound": "CCNc1ncc(C(=O)N(C)CCc2nc3cc(Cl)ccc3[nH]2)cn1", "effect": 7.692}
{"compound": "O=C(NCC1(O)CCC1)c1c(O)cc(F)cc1F", "effect": -2.174}
{"compound": "Cn1cncc1CN1CCc2nc3sccc3c(=O)n2CC1", "effect": 14.77}
{"compound": "Cc1oc(C)c(C(=O)NCc2ccccc2S(=O)(=O)N(C)C)c1C", "effect": 2.4}
{"compound": "CN1CCOC(CN(C(=O)CCCn2cccn2)c2nccs2)C1", "stereo": "stereo not shown", "effect": 12.5}
{"compound": "O=C(Nc1nc2c(s1)CNCC2)NC1CCCC1", "effect": 17.39}
{"compound": "CCc1cc(C(=O)N2CCc3c(ncn3CCc3ccccc3)C2)[nH]n1", "effect": -156}
{"compound": "CN(Cc1ccncc1)C1COC2(CCN(Cc3nccn3C)CC2)C1", "stereo": "stereo not shown", "effect": 9.091}
{"compound": "c1cnc(N2CCOC3(CCN(CC4CCOC4)CC3)C2)nc1", "stereo": "stereo not shown", "effect": 2.655}
{"compound": "COc1cc(I)c(Cl)cc1C(=O)N(C)CC(C)(C)O", "effect": -5.263}
{"compound": "Cc1ccc(NS(=O)(=O)c2cc3c(c(C(=O)O)c2)OCCO3)cc1C", "effect": 11.3}
{"compound": "CN(Cc1ccc(Cl)s1)C(=O)Cn1nc(-c2ccc(F)cc2)oc1=O", "effect": 11.2}
{"compound": "CC(C)c1nnc2n1CC(CNCc1cccnc1)CC2", "stereo": "stereo not shown", "effect": 7.08}
{"compound": "c1ccc(-c2cc(CN3CCc4cncnc4C3)on2)cc1", "effect": 1.042}
{"compound": "O=C(NCCc1cnccn1)C1(N2CCCCC2)Cc2ccccc2C1", "effect": 14.46}
{"compound": "CNc1cc(N2CCCC2CNCc2ccco2)ncn1", "stereo": "stereo not shown", "effect": 22.35}
{"compound": "COC1CCN(C(=O)c2ccc3ncsc3c2)CC1", "effect": 6.667}
{"compound": "Cc1ccn(-c2ccccc2NCc2scnc2C)n1", "effect": 17.81}
{"compound": "COc1cccc(OCC2CCCN(C(=O)c3ccc(N)nc3)C2)c1", "stereo": "stereo not shown", "effect": 20.8}
{"compound": "CS(=O)(=O)CCNCc1ccc(OCc2ccncc2)cc1", "effect": 39.39}
{"compound": "c1cncc(CN2CC[C@H]3O[C@@H](COCC4CC4)CC[C@H]32)c1", "effect": 5.109}
{"compound": "CN(Cc1ccc(C#N)cc1)c1ncc(C(N)=O)cc1Cl", "effect": 29.73}
{"compound": "O=C(c1ccc(-n2ccnn2)cc1)N(CC1CC1)c1cccnc1", "effect": 4.762}
{"compound": "O=c1cc2c(nn1CN1CCN(c3cccc(Cl)c3)CC1)CCC2", "effect": 13.59}
{"compound": "COCC(=O)N1CCc2c(CNS(C)(=O)=O)n[nH]c2C1", "effect": 16.67}
{"compound": "COc1c(CNCCNC(=O)c2ccccc2F)c(C)nn1C", "effect": 18.18}
{"compound": "COCCN1CCC(c2nc3ccc(N4CCCC4)cn3n2)CC1", "effect": 37.84}
{"compound": "COc1ccc(C(N)=O)cc1NCc1ncc(C(C)(C)C)o1", "effect": 0}
{"compound": "CS(=O)(=O)NC[C@H]1OC[C@H]2CN(CCc3ccccc3)CC[C@H]21", "effect": 3.774}
{"compound": "Cc1nc(CCNC(=O)C2CC(=O)N(C(C)(C)C)C2)sc1Cl", "stereo": "stereo not shown", "effect": 11.2}
{"compound": "Cc1noc(C(C)Nc2ccc3oc(C)nc3c2)n1", "stereo": "stereo not shown", "effect": 106}
{"compound": "Cc1noc([C@@H]2CC[C@@H]3[C@@H](CCN3c3nnc(C)s3)O2)n1", "effect": 2.703}
{"compound": "CCCSCC(=O)N1CCCC(c2nccn2Cc2ccncc2)C1", "stereo": "stereo not shown", "effect": 14.52}
{"compound": "Cc1ccsc1CNCCCOc1ccccn1", "effect": 15.93}
{"compound": "OC1CCN(CCCNc2ncccn2)CC1", "effect": 7.965}
{"compound": "O=C(Cc1csc(-c2ccccc2)n1)N[C@@H](C(=O)O)c1ccccc1", "effect": 12.41}
{"compound": "CN(C)[C@@H]1CCN(c2ncc(F)cn2)[C@H]1Cc1ccncc1", "effect": 27.78}

For reference, 6 entries once more:

Compound	effect
Cc1ccc(C2(CN(C)Cc3snnc3C)CCNCC2)nc1	16.81
CN(C)[C@@H]1CCN(c2ncc(F)cn2)[C@H]1Cc1ccncc1	27.78
COCCN1CCOCC12CCN(c1cnccn1)CC2	2.703
CN1CCOC(CN(C(=O)CCCn2cccn2)c2nccs2)C1 (stereo not shown)	12.5
Cc1ccsc1CNCCCOc1ccccn1	15.93
CCn1cc(CNc2ccc3nccnc3c2)cn1	90.91

The values are deposited in ChEMBL (CHEMBL3988442, “University of Dundee, Small-Polar-MMV Screening Library” (2021)).